Reference: US20140295452A1 (PIERRE FABRE MEDICAMENT, published 2014)
These are yes or no findings as the source states them, for the method shown. Some results given as binding are weak or reduced against the parent protein; the word gives no strength.

Chains of the proteins cited; added tags and fusions are not shown. Residues count along the entry.
UniProt P08581, residues 25-932: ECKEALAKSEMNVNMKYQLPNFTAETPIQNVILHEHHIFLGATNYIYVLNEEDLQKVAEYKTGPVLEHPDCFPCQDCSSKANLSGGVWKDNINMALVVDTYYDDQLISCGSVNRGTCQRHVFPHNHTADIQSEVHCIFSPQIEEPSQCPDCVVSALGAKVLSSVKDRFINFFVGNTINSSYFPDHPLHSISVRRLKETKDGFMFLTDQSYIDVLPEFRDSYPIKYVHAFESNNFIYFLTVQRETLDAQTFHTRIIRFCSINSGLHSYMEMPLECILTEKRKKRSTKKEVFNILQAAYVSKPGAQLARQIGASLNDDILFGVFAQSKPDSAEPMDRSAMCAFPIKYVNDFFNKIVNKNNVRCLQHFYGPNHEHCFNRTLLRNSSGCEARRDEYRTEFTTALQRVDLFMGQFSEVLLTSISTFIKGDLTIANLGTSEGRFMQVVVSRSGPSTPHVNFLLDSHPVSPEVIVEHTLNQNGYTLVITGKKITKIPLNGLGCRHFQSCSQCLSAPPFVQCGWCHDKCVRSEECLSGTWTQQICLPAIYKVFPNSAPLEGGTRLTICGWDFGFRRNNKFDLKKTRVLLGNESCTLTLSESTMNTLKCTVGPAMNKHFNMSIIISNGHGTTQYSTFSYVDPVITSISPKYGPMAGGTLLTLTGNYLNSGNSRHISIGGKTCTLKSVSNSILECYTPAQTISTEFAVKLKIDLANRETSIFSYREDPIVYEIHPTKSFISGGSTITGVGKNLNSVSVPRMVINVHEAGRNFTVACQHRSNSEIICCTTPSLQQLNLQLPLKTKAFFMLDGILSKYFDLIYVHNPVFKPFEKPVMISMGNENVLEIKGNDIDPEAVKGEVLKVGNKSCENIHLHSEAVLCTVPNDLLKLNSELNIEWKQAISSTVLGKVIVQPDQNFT

Key:
[1] = target: recombinant human monomeric c-Met protein (human) (UniProt P08581); assay: ELISA on monomeric c-Met protein
[2] = target: recombinant human monomeric c-Met protein (human) (UniProt P08581); assay: ELISA titration on monomeric c-Met coated at 5 µg/ml

binding [1]: binds
binding [2]: binds
B1: murine 221C9 monoclonal antibody (antibody, V domains shown)
VH: QVQLQQPGAELVKPGASVKLSCKASGYTFTSYWMHWVKQRPGQGLEWIGEINPSNGRTHYNEKFRTKATLTVAKSSITAYMQLSTLTSEDSAVYYCARRVGYLMDYWGQGTSVTAPQ
VL: QIVLTQSPAIMSASPGEKVTMTCSASSSVSYMHWYQQKSGTSPKRLIYDTSKLASGVPARFSGSGSGTSYSLTISSMEAEDAATYYCQQWNSNPPTFGAGTKLELK
